According to US20160015669A1, “COMPOUND, 1, 3-DIOLEIN-2-LINOLEIN, AND PHARMACEUTICAL PREPARATION AND USE THEREOF” (ZHEJIANG KANGLAITE GROUP CO., LTD., priority 2014, published 2016):
Values after ≈ are worked out from the molar mass of the structure shown.

Legend:
Assay in all cases: MTT method, inhibition of cell growth in vitro
Assay type in all cases: cell-based
[1] = tested on: A549 (human lung cancer cells); conditions: 48 h
From the text: (§1) A. Experimental Materials and the Preparation Thereof: • (1) Cell lines: PANC-1 (human pancreatic cancer cells), SKOV3 (human ovarian cancer cells), MCF-7 (human breast cancer cells), SMMC-7721 (human liver cancer cells), A549 (human lung cancer cells), BGC-823 (human gastric cancer cells), COLO205 (human colonic cancer cells), storaged and passaged maintainably in Research and Evaluation Center for Pharmacology, Shanghai Institute of Pharmaceutical Industry; • (2) DMEM complete medium supplied with 10% newborn calf serum (GIBCO BRL), 1% of penicillin (100 U/mL)+streptomycin (100 μg/mL); • (3) 0.25% trypsin solution, purchased from Invitrogen Corp. and storaged at −20; • (4) Phosphate buffer (PBS): NaCl 8 g, KCl 0.2 g, Na2HPO4 1.15 g and KH2PO4 0.2 g, dissolved in 1 L double-distilled water and autoclaved at 121 for 20 min, then storaged at 4; • (5) MTT (AMRESCO) solution: 5 mg/ml in PBS; • (6) Formazan crystal dissolving solution: SDS 10 g, isobutanol 5 ml and concentrated hydrochloric acid 0.1 ml, dissolved in 100 ml of deionized double distilled water.
(§2) The inhibition effects of the compound of formula (I) on the above-mentioned cell lines were detected by using MTT method. The specific procedures were as follows:
(§3) (1) Cell culture: (a) Storaged cells were taken out from the liquid nitrogen, thawed quickly in a 37 water bath, then aseptically transferred into 6 ml of cellular medium in a 10 ml centrifugal tube, centrifuged at 1000 rpm for 5 min. […]
(§4) (4) Cells in a logarithmic growth stage were trypsinized and washed, then re-suspended in the medium containing 10% calf serum. The number of living cells was counted in Trypan blue dye exclusion method and cell suspensions were adjusted into a density of 2×10^5 cell/ml. […]

[2] = tested on: SKOV3 (human ovarian cancer cells); conditions: SK-OV-3, 48 h
From the text: as §1, §2, §3, §4

[3] = tested on: MCF-7 (human breast cancer cells); conditions: MCF7, MCF-7, MTT, 48 h
From the text: as §1, §2, §3, §4

IC50 [1]: 0.49 µg/mL (≈ 0.574 µM) | IC50 [2]: 0.38 µg/mL (≈ 0.445 µM) | IC50 [3]: 0.34 µg/mL (≈ 0.398 µM)
Structure (SMILES): CC(=O)O[C@H]1C(=O)[C@@]2(C)[C@H]([C@H](OC(=O)c3ccccc3)[C@]3(O)C[C@H](OC(=O)[C@H](O)[C@@H](NC(=O)c4ccccc4)c4ccccc4)C(C)=C1C3(C)C)[C@]1(OC(C)=O)CO[C@@H]1C[C@@H]2O [Taxol, reference compound]
